The test system of this data set is RisR (Strep-II tag removed by enterokinase). Description: DNase I footprinting. The conditions noted are these: holo-RisR 1 uM, ~10 nM DNA, anaerobic, tag cleaved, 25 mM potassium phosphate, 30 mM KCl, 5 mM potassium glutamate, 100 ug/mL BSA, 1 mM DTT, 37 C, 25 min, pH not stated, recombinant protein, protein details: N-terminal Strep-II tag removed with enterokinase, label: 32P (alpha-32P dGTP, 3' end fill-in), probe letters rebuilt from the primers and the genome, part of a longer molecule.

Construct, isoform or probe ends are uncertain for at least one entry.

“GCGGCCGGTACCCCGGTCGCCTGCCCCTCCGGCGAGGGCGCGGCGGGCGCGTTCTTCTTCTCGCAGGCCACCACGGCCAGGGCCAGGGTCGCGAGCAGCATCAGGGGACGGCGCATCGGCAAGGTTCCTCCGGGGGACGGTGGTGTCACCCTATCCCTCTCCCCCCCGCCCTCCAACCAGCGGCGCTTCAGGGAGGGATTCAAATTGCAATGTGGACTGAAACGGTCCTGATTACATATGAGGTCCTCCGTGGCCCGAGTTTTTTCGGCGCCTGGACCCAGAGAGGAGACACCCGCACCC (double strand) [suf promoter fragment (pPK14641, BamHI-HindIII)]”: the binding result is given as “binds”.

As for “GGCCAGCGAGGGGCCTGCCGGGAAATCAAGCGGTTGGCCGGAGGGTGTGCGCCATTCTGGGGCGCCTCGTCCCAGGACGGCGCGCCCGGACTGATCCACGATGGCGCGGCGTTCACTTAAGACGTCCTATTGGGAGCACGCACCCACACCCGCGGCGCGCCTGATGTTCGCTTGACCCGAAGGCGCCCCTTTTTATATTTGACCAGTCCGGTCCACATTCAGGTGTGACGGTGTAGGTTCCCCTGCGGCAAAGGCGCTCCGAGGCGCCGGTCGACGTCCCCTCCAGGAAGGTGTTGGAAGCA (double strand) [isc promoter fragment (pPK14640, BamHI-HindIII)]”, the binding result is “binds”.

(Values after publication PMC9973013.)
